The values that follow come from PubChem BioAssay AID445 (National Center for Advancing Translational Sciences (NCATS), 2006).

The list shows a part of the results. Further columns of the screen follow, without active or inactive calls. The list favours compounds with an active or inconclusive main result. Potencies come from curve fits of mixed quality, noted in brackets.

The assay is described as follows: IkB Signaling. As to conditions: ABC-DLBCL IkBa-CBG/CBR dual luciferase ratio (green luciferase fused to IkBa over red control in OCI-Ly3 lymphoma cells), 4 h; measured here: control luc red channel unless noted. Put shortly:
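Curves were fitted separately to fusion (green), unfused (red) and ratio luminescence, then classed by r2, magnitude and activity. Cells: OCI-Ly3, 4 h compound plus doxycycline at 37C; 10 uM MG-132 defined full response.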
On to `CCOc1ccc(-n2c(=O)c3sc4ccccc4c3n(Cc3cccc(C)c3)c2=O)cc1`, for which the AC50 was 0.398 µM [rising, full curve].
Turning to `COc1ccc(C2C(=O)N(C3CCCCC3)CC(=O)N2CCC2=CCCCC2)cc1` (stereo unspecified), the AC50 was 39.8 µM [falling, single point].
On to `Cc1cccc(N2CCN(C(=O)CCc3c(C)nc4c(c3C)c(=O)n(C)c(=O)n4C)CC2)c1C`, for which the concentration at half-maximal activity (AC50) is 12.6 µM [falling, partial curve].
As for `CC1CCC(NC(=O)c2ccc3c(c2)N(Cc2ccccc2F)C(=O)c2ccccc2S3=O)CC1` (stereo unspecified), the AC50 was 7.94 µM [falling, partial curve].
As to `O=C(NCc1ccccc1)C(=O)NCC(c1ccc2c(c1)OCO2)N1CCOCC1` (stereo unspecified), the AC50 is 0.158 µM [falling, full curve, poor fit].
The result for `COc1ccc2c(c1)sc1ncc(C(=O)NCc3ccc(Cl)cc3)c(=O)n12` reads 0.0398 µM [rising, full curve].
With `Clc1ccc(-c2cn3ncsc3n2)cc1`, the AC50 is 0.501 µM [rising, full curve].
Consider `Cc1ccc2c(c1)C(=O)OC(C(=O)Nc1ncc(Cc3ccccc3Cl)s1)C2` (stereo unspecified), for which the AC50 is 20 µM [falling, partial curve].
Consider `CCOc1ccc2c(c1)c(=O)c(C(=O)c1ccccc1)cn2Cc1ccccc1`, for which the AC50 is 25.1 µM [falling, single point].
As for `Cc1ccc(C(=O)Nc2c(C(=O)NC(C)(C)C)oc3ccccc23)cc1`, the half-maximal activity concentration (AC50) is 12.6 µM [falling, partial curve].
The result for `CCOC(=O)c1ccc(NC(=O)CSc2c(C(C)C)cnc3c2c(=O)n(C)c(=O)n3C)cc1` reads 39.8 µM [falling, single point]; that for `O=C(/C=C\Nc1cccc(F)c1)c1ccc2c(c1)OCO2`, 7.94 µM [falling, partial curve].
For `CCOc1nc2c(c(=O)n(C)c(=O)n2C)n1Cc1ccccc1Cl` the value was 20 µM [falling, single point]; for `CC(C)c1cc(C(=O)Nc2ccc3c(c2)OCO3)no1`, 2 µM [falling, full curve]; for `Cc1cccc(N2C(=O)N(Cc3cc(=O)n4ccccc4n3)c3ccccc3S2(=O)=O)c1`, 15.8 µM [falling, single point].
For the compound `CC(=O)Nc1cc(C(=O)NCc2ccccc2Cl)ccc1Sc1ccc(F)cc1`, the AC50 is 31.6 µM [falling, single point].
For `Cc1cc(C)cc(NC(=O)c2cc(S(=O)(=O)NCCC3=CCCCC3)ccc2F)c1` the value was 20 µM [falling, single point]; for `CCOc1ccc2nc(N3CCN(C(=O)c4ccc5c(c4)CCCC5)CC3)sc2c1`, 0.00794 µM [falling, full curve, poor fit].
Take `Cc1cc(OCC(=O)Nc2ccc(C(=O)OC3CCCCC3)cc2)cc(C)c1Cl`: the AC50 is 3.98 µM [falling, full curve, poor fit].
Consider `CCOC(=O)c1ccc(Oc2nc(NC(C)(C)C)nc(N(C)C)n2)cc1`, for which the AC50 was 12.6 µM [falling, partial curve].
The result for `CCN1CCN(c2csc3ccc(C)cc3c2=O)CC1` reads 0.251 µM [rising, full curve]; that for `Cc1ccccc1-c1noc(-c2cc3ccccc3oc2=O)n1`, 7.94 µM [falling, partial curve]; that for `Cc1ccc(-n2ncc(C(=O)Nc3ccc4c(c3)OCCO4)c2C2CCN(C(=O)OC(C)(C)C)CC2)cc1`, 15.8 µM [falling, partial curve].
The result for `CCOc1cccc(CN2CCN(c3cccc(C(F)(F)F)c3)CC2)c1O` reads 20 µM [falling, partial curve]; that for `COc1ccc(OCC(=O)N2CCN(c3nnc(-c4ccccc4)c4ccccc34)CC2)cc1`, 7.94 µM [falling, partial curve].
Take `CC1CCN(S(=O)(=O)c2ccc3c(c2)oc(=O)n3CC(=O)NC(C)c2ccccc2)CC1` (stereo unspecified): the AC50 is 12.6 µM [falling, partial curve].
The result for `CNc1c(NC(=O)c2cc(OC)cc(OC)c2)c(=O)oc2ccccc12` reads 39.8 µM [falling, single point].
`CSc1nc(Nc2cccc(C)c2)c(C#N)c(-c2ccccc2)n1`: the AC50 is 39.8 µM [rising, single point].
For `CCOC(=O)c1cnc2ccc(OC)cc2c1NCCc1ccc(OC)c(OC)c1` the value was 25.1 µM [falling, partial curve]; for `Cn1c(SCC(=O)N2CCCc3ccccc32)ncc(C(=O)Nc2ccc(F)cc2)c1=O`, 20 µM [falling, single point]; for `CCc1ccc(C(=O)CSC2=C(C#N)C(c3ccco3)C(C(C)=O)=C(C)N2)cc1` (stereo unspecified), 12.6 µM [falling, partial curve].
With `CCCCNC(=O)c1nn(-c2ccc(C)cc2)c(=O)c2c1c1ccccc1n2C`, the AC50 was 39.8 µM [rising, single point].
As for `Cc1cccc(CNC(=O)c2cccc(NC(=O)N3CCSc4ncccc43)c2)c1`, the AC50 is 25.1 µM [falling, partial curve].
The result for `Cc1ccc2c(c1)C(c1ccccc1)N(C(=O)c1ccccc1F)CC(=O)N2` (stereo unspecified) reads 1.26 µM [falling, partial curve]; that for `CCOC(=O)c1cccc(NC(=O)c2cc3cc4ccc(C)cc4nc3o2)c1`, 2.51 µM [rising, full curve, poor fit]; that for `CCCn1c(SCc2nc(-c3cc(OC)ccc3OC)no2)nnc1-c1ccc(Cl)cc1`, 31.6 µM [falling, single point].
With `COc1cc(C2C(=O)N(C3CCCCCC3)CC(=O)N2CCC2=CCCCC2)ccc1OC(C)C` (stereo unspecified), the AC50 was 6.31 µM [falling, partial curve].
For `O=C(Nc1ccccc1Cl)c1cc(S(=O)(=O)N2CCC3(CC2)OCCO3)ccc1F` the value was 20 µM [falling, single point]; for `COc1ccccc1-c1noc(-c2ccccc2)n1`, 12.6 µM [falling, partial curve].
The result for `CCn1cc2nc(SCc3ccccc3Cl)n(CCc3ccccc3)c(=O)c2n1` reads 31.6 µM [falling, single point]; that for `COc1ccccc1NC1SC(=O)N(c2ccccc2)C1=O` (stereo unspecified), 0.0398 µM [falling, full curve].

One may read the AC50 as the midpoint of the concentration-response curve, whichever way the signal moves.
